From PMC12714725
Changes are numbered by the printed parent chain. Results are given in words; binding and its absence hold for the method and conditions named. Some entries that bind do so weakly or less than the wild type. Tags and fused reporters may be left off the sequences shown.

Chains of the proteins cited; added tags and fusions are not shown.
UniProt Q27497: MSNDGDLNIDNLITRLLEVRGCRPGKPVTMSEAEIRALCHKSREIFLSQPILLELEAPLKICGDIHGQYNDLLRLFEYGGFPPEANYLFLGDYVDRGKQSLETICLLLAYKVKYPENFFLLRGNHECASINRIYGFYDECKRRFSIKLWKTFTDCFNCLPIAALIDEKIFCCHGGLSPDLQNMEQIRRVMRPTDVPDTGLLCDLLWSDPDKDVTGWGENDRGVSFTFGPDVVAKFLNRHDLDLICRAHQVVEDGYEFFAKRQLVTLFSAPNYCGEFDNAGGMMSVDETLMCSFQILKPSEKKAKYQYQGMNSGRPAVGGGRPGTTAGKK
UniProt P48727: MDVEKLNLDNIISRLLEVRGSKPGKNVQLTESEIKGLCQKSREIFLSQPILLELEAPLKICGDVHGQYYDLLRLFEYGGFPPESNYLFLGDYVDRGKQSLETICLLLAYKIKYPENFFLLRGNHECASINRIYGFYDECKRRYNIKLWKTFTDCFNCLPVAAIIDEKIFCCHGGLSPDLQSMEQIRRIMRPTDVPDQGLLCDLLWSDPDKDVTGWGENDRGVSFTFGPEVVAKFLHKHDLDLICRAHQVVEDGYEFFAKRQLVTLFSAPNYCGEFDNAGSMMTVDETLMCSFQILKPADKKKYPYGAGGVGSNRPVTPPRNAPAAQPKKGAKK

What was measured:
[1] = molecular target: T1, Full-length SDS-22(E153A) fused to the GAL4 DNA binding domain (C. elegans) (UniProt P45969); assay: two-hybrid; GAL4-based yeast two-hybrid (Gateway), MAV203 yeast; SDS-22 as bait (GAL4 DBD), GSP-1 or GSP-2 as prey (GAL4 AD); growth on medium lacking leucine, tryptophan and histidine with 7.5 mM 3AT
T1 sequence: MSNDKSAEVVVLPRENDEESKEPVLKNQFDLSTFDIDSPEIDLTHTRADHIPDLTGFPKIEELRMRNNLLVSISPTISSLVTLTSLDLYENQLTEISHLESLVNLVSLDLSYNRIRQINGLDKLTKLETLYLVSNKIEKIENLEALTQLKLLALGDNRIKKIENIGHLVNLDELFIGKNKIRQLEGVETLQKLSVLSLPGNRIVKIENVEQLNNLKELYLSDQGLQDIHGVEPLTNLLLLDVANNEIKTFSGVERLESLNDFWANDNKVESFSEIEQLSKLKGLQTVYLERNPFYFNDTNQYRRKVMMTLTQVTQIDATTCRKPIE

[2] = molecular target: T2, Full-length SDS-22 (1-326) fused to the GAL4 DNA binding domain (C. elegans) (UniProt P45969); assay: as above
T2 sequence: T1 sequence with A153E

binding [1] | binding [2] | Substance
no binding | binds | Full-length GSP-1 fused to the GAL4 activation domain (from UniProt Q27497 1-329) (enzyme)
no binding | binds | Full-length GSP-2 fused to the GAL4 activation domain (from UniProt P48727 1-333) (enzyme)
